According to PubChem BioAssay AID1347423 (Functional Genomics Laboratory (NCATS/FGL), 2020):
The whole screen tested about 52,000 sequences, of which about 210 (0.4%) were called active.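 The calls were made as follows: active = gene whose silencing raises cell survival under the drug, median off-target-corrected z-score across its silencing RNAs 2 or more; inactive = the rest.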 The list shows a part of the results.

Assay: Resistance to Poly (ADP-Ribose) Polymerase inhibitor: Gene Identification via Genome-wide siRNA Screen
Conditions: mouse BRCA2 R2336H ES cells, olaparib, CellTiter-Glo viability; active compounds read high
In short: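 Genome-wide siRNA screen (3 siRNAs/gene, 20 nM) in mouse ES cells carrying hypomorphic BRCA2 R2336H; olaparib 500 nM added 48 h post-transfection, CellTiter-Glo viability 72 h later. Normalized to plate-median negative control; MAD z-scores, gene median, seed-adjusted.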

| Sequence | z-score |
| --- | --- |
| GGCAAUUGCUGGGUUUCCATT against Mlp | inactive: -1.48 |
| GGUCCUUAAUCAUCUGCAUTT against Galr1 | inactive: -0.816 |
| GGACAUGUGCAUGAAGGUUTT against Cryl1 | inactive: 0.145 |
| GGUUGAAAAUGGAAGAGUATT against Mbnl2 | inactive: -1.85 |
| GCAAAACCAAGUGAAUGUGTT against Plac1 | inactive: -0.146 |
| GGAUGUCUCAAAGUAAGAATT against Daf2 | inactive: -0.885 |
| CCAAAGAUGCUAGUUGACCTT against Olfr1135 | inactive: -1.33 |
| GGCAAUUCUGAAGAAACCATT against Ogn | inactive: -1.05 |
| GGACAUGAGGCUUCUGAGATT against Mcpt6 | inactive: -0.95 |
| GGAAGACAAAAUGUUCUAATT against 5830482G23Rik | inactive: -0.974 |
| GGAGAUACCUUAGAAGAUATT against Dlgh2 | inactive: -0.396 |
| GGGUACCAGAUGAUCCAAATT against Hrmt1l6 | inactive: 0.24 |
| GGACAAAAGGCAGCUUAUUTT against Cnot3 | inactive: -2.29 |
| GGAGAACAUUCCUUUACAGTT against Ces3 | inactive: 0.508 |
| GGAACUGGGCAUCAAGUACTT against 1600020H07Rik | inactive: 0.69 |
| UGAAGUGGUGAAUCAGAGUTT against Olfr1167 | inactive: -1.56 |
| CGUCAACCUUUGGUACAAATT against Cabin1 | inactive: 0.309 |
| GGGAACGAGAACCGAUUUGTT against Tfpi | inactive: -0.848 |
| GGUCUUCUCUCACCUUUUATT against 6.33E+19 | inactive: -1.26 |
| CCAGCUUACAUGAAUAGUUTT against Cart1 | inactive: 0.953 |
| CCUGCACACCAAGUAUCUGTT against Ccl6 | inactive: -0.0676 |
| GGUGGCUUGAGCAGAAUCUTT against BC016201 | inactive: -0.0596 |
| GGAGCUCUUUGCCAAGAAUTT against 4732416F18 | inactive: -2.25 |
| GGAACAUCAUCAACCACUATT against Olfr909 | inactive: -0.371 |
| GCUCUUGUUAUUUACGUCGTT against Lgi1 | inactive: 0.372 |
| CGGUCUUGUGGUCUUUUACTT against Rab7 | inactive: 1.11 |
| GGUAGGAAGCUAGAGAAAUTT against Synj2 | inactive: -0.492 |
| CGGUUCCUCUAACAUGAUATT against Ppp1r2 | inactive: 0.26 |
| GCUCUGAUAUUCUCAUCAATT against Olfr39 | inactive: 1.92 |

Part of the list above, field by field.
GGUCUUCUCUCACCUUUUATT against 6.33E+19
  z-score: inactive: -1.26
CCAGCUUACAUGAAUAGUUTT against Cart1
  z-score: inactive: 0.953
